Values from PubChem BioAssay AID1259308 (NCATS, 2017).

Screen: 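Genes whose loss raises luciferase production in HEK293 cells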 (primary screen)
System: human HEK293 embryonic kidney cells stably expressing firefly luciferase (HEK-CMV-Luc2-Hygro)
Knock-down reagent: single siRNA against human genes, 0.8 pmol siRNA per well
Time to read-out: 72 h
Measurement: 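Luciferase light (ONE-Glo) measured on one replicate plate set and viability (CellTiter-Glo) on the other, scaled to a negative control siRNA, with robust z-scores and luciferase per cell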
Direction: total luciferase, z-score: higher = more reporter protein produced
Rule for the call: 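Active when the median/MAD z-score for overall luciferase is greater than 3; a gene was taken forward for validation with new siRNAs if at least two of its three siRNAs passed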
Meaning of the calls: active = raised luciferase; inactive = no rise
This is a random part of about 59,000 reagents tested. About 1,510 of them (2.6%) were called active. 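Calls use total luciferase alone and ignore viability, so some active siRNAs may act by altering cell number.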 Reagents against one gene are numbered here. Further read-outs or replicates are left out here.

What did the screen give for CTAGE6 (CTAGE family member 6) #1?
total luciferase, z-score: -2.37; call: inactive

For CTAGE6 (CTAGE family member 6) #2, how do the results read?
total luciferase, z-score: 0.55; call: inactive

Which result is listed for CTAGE6 (CTAGE family member 6) #3?
total luciferase, z-score: 1.33; call: inactive

How did the screen score HSD11B1L (hydroxysteroid 11-beta dehydrogenase 1 like) #1?
total luciferase, z-score: 2.55; call: inactive

What is on record for HSD11B1L (hydroxysteroid 11-beta dehydrogenase 1 like) #2?
total luciferase, z-score: 1.13; call: inactive

With HSD11B1L (hydroxysteroid 11-beta dehydrogenase 1 like) #3, how do the results read?
total luciferase, z-score: -1.03; call: inactive

Taken from above.
Result of HSD11B1L (hydroxysteroid 11-beta dehydrogenase 1 like) #3 under “total luciferase, z-score”: -1.03
CTAGE6 (CTAGE family member 6) #3, call → inactive

More reagents follow.
What did the screen give for PPM1L (protein phosphatase, Mg2+/Mn2+ dependent 1L) #1?
total luciferase, z-score: 0.0143; call: inactive

With PPM1L (protein phosphatase, Mg2+/Mn2+ dependent 1L) #2, how do the results read?
total luciferase, z-score: -1.67; call: inactive

What is on record for PPM1L (protein phosphatase, Mg2+/Mn2+ dependent 1L) #3?
total luciferase, z-score: -0.72; call: inactive

What did the screen give for ZNF563 (zinc finger protein 563) #1?
total luciferase, z-score: 0.0485; call: inactive

For ZNF563 (zinc finger protein 563) #2, what was measured?
total luciferase, z-score: -0.501; call: inactive

For ZNF563 (zinc finger protein 563) #3, what does the deposit list?
total luciferase, z-score: -0.386; call: inactive
